This assay addresses human eIF3c with C-terminal Strep tag (human) (UniProt Q99613). The assay is described as follows: affinity purification with mass spectrometry; large scale: Hi5 lysate (co-infection pBIG2AB/CD) on StrepTrap XT column via Strep tag on eIF3c, wash with 300 mM KCl, biotin elution; then Heparin column and Superose 6 SEC (150 mM KCl); SDS-PAGE, Western blot and mass spectrometry of the complex. (In general: In western blotting, separated proteins are transferred to a membrane and probed.)

Sequences of proteins named here, by UniProt entry; tags and fusion partners are left off.
UniProt Q99613: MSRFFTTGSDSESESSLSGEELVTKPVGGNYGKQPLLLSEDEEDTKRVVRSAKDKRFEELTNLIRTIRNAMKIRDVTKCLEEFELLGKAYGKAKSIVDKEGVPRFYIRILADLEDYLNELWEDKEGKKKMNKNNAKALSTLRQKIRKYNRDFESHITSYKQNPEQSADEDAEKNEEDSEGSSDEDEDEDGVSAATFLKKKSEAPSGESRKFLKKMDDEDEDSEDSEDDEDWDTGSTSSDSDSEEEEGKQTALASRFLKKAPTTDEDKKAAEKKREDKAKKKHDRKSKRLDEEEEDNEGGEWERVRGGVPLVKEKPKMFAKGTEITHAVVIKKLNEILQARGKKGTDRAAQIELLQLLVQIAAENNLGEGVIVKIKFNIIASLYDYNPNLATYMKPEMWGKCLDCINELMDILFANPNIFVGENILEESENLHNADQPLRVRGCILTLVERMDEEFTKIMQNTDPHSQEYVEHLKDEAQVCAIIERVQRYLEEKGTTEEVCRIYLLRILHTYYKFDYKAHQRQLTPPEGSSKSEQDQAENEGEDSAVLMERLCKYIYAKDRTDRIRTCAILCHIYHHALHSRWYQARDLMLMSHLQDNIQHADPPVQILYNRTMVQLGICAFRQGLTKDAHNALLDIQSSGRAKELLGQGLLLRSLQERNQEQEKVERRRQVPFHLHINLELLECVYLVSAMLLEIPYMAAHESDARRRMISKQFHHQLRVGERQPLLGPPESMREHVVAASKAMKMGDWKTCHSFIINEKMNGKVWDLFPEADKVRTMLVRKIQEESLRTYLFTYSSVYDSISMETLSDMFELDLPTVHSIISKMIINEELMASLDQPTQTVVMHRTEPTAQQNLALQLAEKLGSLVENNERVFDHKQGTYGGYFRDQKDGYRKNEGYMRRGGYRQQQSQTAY
UniProt O00303: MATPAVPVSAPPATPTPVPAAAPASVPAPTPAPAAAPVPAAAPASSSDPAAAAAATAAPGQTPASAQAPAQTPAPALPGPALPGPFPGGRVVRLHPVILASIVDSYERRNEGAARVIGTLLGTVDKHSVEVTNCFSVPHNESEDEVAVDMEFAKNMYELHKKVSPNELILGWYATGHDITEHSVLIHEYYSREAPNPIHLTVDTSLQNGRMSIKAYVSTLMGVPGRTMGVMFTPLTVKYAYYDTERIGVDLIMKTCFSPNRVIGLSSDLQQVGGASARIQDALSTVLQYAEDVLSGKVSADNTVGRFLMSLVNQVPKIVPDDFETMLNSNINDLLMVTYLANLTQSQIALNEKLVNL
UniProt Q9UBQ5: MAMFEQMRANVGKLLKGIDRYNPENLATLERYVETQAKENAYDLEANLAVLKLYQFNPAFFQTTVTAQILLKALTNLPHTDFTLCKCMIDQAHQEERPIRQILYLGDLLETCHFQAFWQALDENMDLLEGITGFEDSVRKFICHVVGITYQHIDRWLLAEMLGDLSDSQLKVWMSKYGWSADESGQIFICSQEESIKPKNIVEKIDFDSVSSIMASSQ
UniProt Q9Y262: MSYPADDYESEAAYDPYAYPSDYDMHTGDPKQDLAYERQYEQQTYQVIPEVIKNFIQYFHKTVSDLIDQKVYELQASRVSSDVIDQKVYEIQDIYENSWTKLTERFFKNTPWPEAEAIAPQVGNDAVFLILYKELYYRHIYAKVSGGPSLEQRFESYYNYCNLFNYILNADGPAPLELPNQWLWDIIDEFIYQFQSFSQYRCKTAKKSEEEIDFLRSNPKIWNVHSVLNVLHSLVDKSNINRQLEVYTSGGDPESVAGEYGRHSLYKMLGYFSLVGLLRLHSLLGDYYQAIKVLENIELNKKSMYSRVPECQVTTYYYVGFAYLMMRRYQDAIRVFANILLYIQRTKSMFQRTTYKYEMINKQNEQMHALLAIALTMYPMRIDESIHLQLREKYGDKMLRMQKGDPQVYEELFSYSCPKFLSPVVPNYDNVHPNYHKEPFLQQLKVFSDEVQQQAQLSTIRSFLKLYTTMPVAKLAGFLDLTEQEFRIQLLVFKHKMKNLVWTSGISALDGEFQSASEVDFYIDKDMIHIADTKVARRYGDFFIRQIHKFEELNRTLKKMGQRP

Consider three substances from PMC12723715.

No constants are given. Whether binding was seen depends on the method and setting. In cells and extracts the contact can be indirect. These calls come from enrichment with a bait or labelling near it, and not all partners need be listed.

Consider human eIF3f (from UniProt O00303 1-357), for which the binding result is listed as “binds”.
In the case of human eIF3k (from UniProt Q9UBQ5 1-218) it was “binds”; in that of human eIF3l (from UniProt Q9Y262 1-564), “binds”.
